Patent US20250326807A1, “CALPROTECTIN BINDING PEPTIDES” (Buehlmann Laboratories AG, priority 2022, published 2025)
No constants are given. Whether binding was seen depends on the method and setting. Some binding calls cover weakened binding; strength is not graded here. Tags and fused reporters may be left off the sequences shown.

By UniProt entry, the sequences of proteins in these tests, tags left out. Where a name states a change or a piece, a line headed by the entry shows the natural chain unless it says otherwise.
UniProt P06702: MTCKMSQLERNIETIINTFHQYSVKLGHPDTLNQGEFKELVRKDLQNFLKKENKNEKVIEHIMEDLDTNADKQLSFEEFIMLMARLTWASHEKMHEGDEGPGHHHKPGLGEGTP
UniProt P05109: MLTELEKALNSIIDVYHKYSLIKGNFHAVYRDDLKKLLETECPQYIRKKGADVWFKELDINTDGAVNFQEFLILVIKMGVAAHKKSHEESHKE

Molecular target: T1, Recombinantly expressed fused calprotectin (His6-linker-S100A9-linker-S100A8), product code B-RCAL, BÜHLMANN Laboratories AG (human) (UniProt P06702+P05109)
T1 sequence: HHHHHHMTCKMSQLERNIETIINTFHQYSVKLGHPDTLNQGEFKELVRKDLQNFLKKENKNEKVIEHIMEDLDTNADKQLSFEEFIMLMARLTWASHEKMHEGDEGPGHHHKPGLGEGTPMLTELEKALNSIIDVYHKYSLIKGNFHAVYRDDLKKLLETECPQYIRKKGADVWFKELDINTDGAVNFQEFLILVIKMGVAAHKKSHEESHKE
Test: sandwich ELISA, calprotectin captured by rabbit polyclonal antibody, peptide-biotin with Strep-HRP

Binder: RSPESVAFPMFQSHWYSG (N-terminal biotin (attachment not described)) [Peptide 3 with N-terminal biotinylation]
- binding: binds
